According to PMC11724365, “Novel archaeal ribosome dimerization factor facilitating unique 30S–30S dimerization” (Nucleic Acids Research, 2025):
Results are given in words; binding and its absence hold for the method and conditions named. Binding can be weak; no strength is given.

Target: eS32 ribosomal protein (Pyrococcus furiosus (endogenous in P. furiosus cells))
Test: cryo-EM structure; 1 uM P. furiosus 30S subunits with 5 uM aRDF (1:5) in 20 mM HEPES-KOH pH 7.0, 12 mM MgCl2, 100 mM NH4Cl, 0.5 mM EDTA; 15 min at 70 °C before freezing; Structures I and II at 3.2 Å; both purified

B1: archaeal ribosome dimerization factor (aRDF) (natural protein, Pyrococcus furiosus)
chain: MKVVGIKGSVSYLQALKYLKTKKVTKRLKEIEKLVDTLITLAPYAPEGSKIETIRKNYAKISFNKIKTVSRSKIGSPRIKSIMLLLWNFGLLDVKIIENSWYVRKTKLASLLEENFKDLSPSEKLKVYLLGGLLVDTPARFVYRCTLNGVEDYKGVKKAILGYLSDQRSNSLIIGLSNMLESIKFIEEAQAYSGKKEYIGLVDVAFYGLSGLYLDVKRESGKLTVKPNFRELRALYEIDKSVATGSDYGLSISKEILENLANTKRRKTIFSEEVQELLVNVIKENAISISQDLQNMYGII
notes: aRDF (PF0560 protein) of Pyrococcus furiosus; modelled in PDB 9FNY and 9FNZ with poorly defined loops omitted; Forms homodimers (monomers A and B); two homodimers bridge two 30S subunits in the cryo-EM structures; also called PF0560; PF0560 protein; source: E. coli BL21(DE3), purified (heat treatment, Ni-NTA, heparin)
- binding: binds
